## Library screening results

The values are deposited in ChEMBL (CHEMBL3988442, “University of Dundee, Small-Polar-MMV Screening Library” (2021)).

Results are given as percent effect.
The record does not define 0% and 100%; most values in the screen are far below 50% and negative numbers occur (in some assays of this library far below -100).
The compounds are a random part of those screened.
A dash means the value is not listed here; it may have been measured.

Mtb growth Cornell: 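Whole-cell assay for inhibitors of Mycobacterium tuberculosis growth, labelled Cornell in the record; the read-out is not stated. The concentration is filed as 10 mM, unlikely as a test dose, so the dose is not known. The record gives no direction; compounds strong in two other growth screens of this library score well above the rest, so higher reads as stronger inhibition. Size under these conditions: about 53,000 compounds, about 900 of them at 50% or above in at least one test.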
Mtb heat-shock: 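Assay on Mycobacterium tuberculosis, filed only as a heat shock assay from Cornell; the read-out is not stated. The concentration is filed as 10 mM, unlikely as a test dose, so the dose is not known. The record gives no direction; compounds that gave an IC50 in retests scored well above the rest, so higher reads as stronger inhibition. Size under these conditions: about 69,000 compounds, about 930 of them at 50% or above in at least one test.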

structure: Cc1cc2c(=O)n3c(nc2s1)CCN(Cc1c[nH]cn1)CC3.Cl
Mtb growth Cornell: -5.387%
Mtb heat-shock: -21.28%

structure: CN(C)c1cc(CNC(=O)c2ccc(F)cc2F)ccn1
Mtb growth Cornell: 10.9%
Mtb heat-shock: -12.09%

structure: O=C1NCCN1C1CCN(CCOc2cccc3ccccc23)CC1
Mtb heat-shock: 14.2%

structure: Cc1nc(C2CCNCC2)cc(N2CCCC(C(=O)NCCCO)C2)n1 (stereo not shown)
Mtb growth Cornell: -27.51%
Mtb heat-shock: -12.52%

structure: c1cc2c(cc1-n1nc(C3CC3)nc1-c1csnn1)OCCO2
Mtb growth Cornell: -7.065%
Mtb heat-shock: -22.05%

structure: O=c1cc(N2CCCCC2)cnn1Cc1noc(C2CCCO2)n1 (stereo not shown)
Mtb heat-shock: 6.665%

structure: COCCN1CCN(c2ncnc3nc(C)cc(C)c23)CC1
Mtb growth Cornell: -1.466%
Mtb heat-shock: -3.788%

structure: COc1ncc(Cl)c(NCc2ccc([S+](C)[O-])cc2)n1 (stereo not shown)
Mtb growth Cornell: 6.666%
Mtb heat-shock: 3.7%

structure: CN(CCO)c1ncc(-c2ccc(NC(=O)[C@@H]3CCCCN3)cc2)cn1
Mtb growth Cornell: 0.1461%
Mtb heat-shock: -11.79%

structure: COc1ccc(CN2CCc3c(nc(-c4ccccn4)[nH]c3=O)C2)cc1
Mtb growth Cornell: 41.44%
Mtb heat-shock: 89.16%

structure: CN(C)Cc1nc(C(=O)N2CCCC(COc3ccc(F)cc3)C2)cs1 (stereo not shown)
Mtb growth Cornell: 3.306%
Mtb heat-shock: -4.47%

structure: Cc1nc(COCc2nc3c(o2)CN(C(=O)c2ccc[nH]2)C3)cs1.O=C(O)C(F)(F)F
Mtb growth Cornell: 14.76%
Mtb heat-shock: 37.92%

structure: COc1ccc(OC)c(CN2CCC(c3cc(O)nc(C)n3)C2)c1 (stereo not shown)
Mtb heat-shock: -33.07%

structure: c1cc(CN2CCCC(c3ccnc4nccn34)C2)ccn1 (stereo not shown)
Mtb growth Cornell: 21.25%
Mtb heat-shock: -10.04%

structure: CS(=O)(=O)NC(=O)c1ccn(-c2ccccc2Cl)n1
Mtb heat-shock: 2.3%

structure: CO[C@H]1CO[C@@]2(CCCN(C(=O)N(C)C)C2)C1
Mtb growth Cornell: -33.29%
Mtb heat-shock: 39.38%

structure: CSCC(=O)N1CCC(c2nccn2Cc2cscn2)CC1
Mtb growth Cornell: 12.76%
Mtb heat-shock: 5.259%

structure: O=C1CC(C(=O)N2CCc3sccc3C2)CN1Cc1cccnc1 (stereo not shown)
Mtb growth Cornell: 7.287%
Mtb heat-shock: -22.8%

structure: CCC(C)(C)CC(=O)NC(C)C(=O)Nc1ccc(-n2cncn2)cc1 (stereo not shown)
Mtb growth Cornell: 1.467%
Mtb heat-shock: -37.69%

structure: CC(c1ccccc1)N(C)C(=O)CNCCn1cccn1 (stereo not shown)
Mtb growth Cornell: -11%
Mtb heat-shock: 15.42%

structure: CCCN1CCC(CNC(=O)C2(c3cc(C)cc(C)c3)CCC2)C1 (stereo not shown)
Mtb growth Cornell: -12.18%
Mtb heat-shock: -23.25%

structure: CC(C)NC(=O)C1CN(C(=O)COc2ccccc2)CC12CCOCC2 (stereo not shown)
Mtb growth Cornell: -9.756%
Mtb heat-shock: -3.512%

structure: CC(=O)c1ccccc1-c1cc(C(=O)O)cc(S(=O)(=O)NC(C)C)c1
Mtb heat-shock: 17.11%

structure: O=C(O)C(F)(F)F.O=C(O)C(F)(F)F.[H][C@]12CCN(CCN(C)C)[C@@]1([H])CC[C@H](COCC(=O)N1CCCC1)O2
Mtb growth Cornell: -23.52%
Mtb heat-shock: -33.31%

structure: COCCN1CCC2(COCCN(C(=O)Cc3cccs3)C2)C1.O=C(O)C(F)(F)F (stereo not shown)
Mtb growth Cornell: 14%
Mtb heat-shock: -1.8%

structure: Cc1nc(C2CCCN2Cc2cc(Cl)c3c(c2)OCCCO3)no1 (stereo not shown)
Mtb growth Cornell: 38.94%
Mtb heat-shock: 45.55%

structure: CCOc1ccnc(N2CCN(C(=O)c3cnc[nH]3)CC2)n1
Mtb heat-shock: -11.9%

Once more, the final 3:

structure,Mtb growth Cornell,Mtb heat-shock
COCCN1CCC2(COCCN(C(=O)Cc3cccs3)C2)C1.O=C(O)C(F)(F)F (stereo not shown),14%,-1.8%
Cc1nc(C2CCCN2Cc2cc(Cl)c3c(c2)OCCCO3)no1 (stereo not shown),38.94%,45.55%
CCOc1ccnc(N2CCN(C(=O)c3cnc[nH]3)CC2)n1,-,-11.9%